Test results reported in PMC5790771.
Results are given in words; binding and its absence hold for the method and conditions named. Some results given as binding are weak or reduced against the parent protein; the word gives no strength.

Amino acid sequences for entries named in this document (tags omitted). A change or cut given only in a name is not applied to a line headed by its entry. Chains listed by the source or under a name are the forms on record and can include a tag or linker. Residues count along the entry.
UniProt Q9LJE4, residues 51-596: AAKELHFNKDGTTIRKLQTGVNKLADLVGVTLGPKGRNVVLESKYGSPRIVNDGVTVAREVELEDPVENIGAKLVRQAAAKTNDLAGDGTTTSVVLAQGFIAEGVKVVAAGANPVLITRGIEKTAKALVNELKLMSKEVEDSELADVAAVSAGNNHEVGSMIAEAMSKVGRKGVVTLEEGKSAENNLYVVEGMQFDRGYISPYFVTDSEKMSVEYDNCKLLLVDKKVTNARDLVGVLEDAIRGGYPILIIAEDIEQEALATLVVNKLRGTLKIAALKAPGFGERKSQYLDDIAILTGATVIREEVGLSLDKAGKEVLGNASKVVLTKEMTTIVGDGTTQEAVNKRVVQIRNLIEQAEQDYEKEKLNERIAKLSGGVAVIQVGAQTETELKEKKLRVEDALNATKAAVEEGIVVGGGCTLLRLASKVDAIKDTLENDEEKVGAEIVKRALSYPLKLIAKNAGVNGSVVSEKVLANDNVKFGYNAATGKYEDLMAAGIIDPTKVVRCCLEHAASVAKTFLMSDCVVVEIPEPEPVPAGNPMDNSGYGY
Cpn60α2 (At2g28000) (P21238, form named): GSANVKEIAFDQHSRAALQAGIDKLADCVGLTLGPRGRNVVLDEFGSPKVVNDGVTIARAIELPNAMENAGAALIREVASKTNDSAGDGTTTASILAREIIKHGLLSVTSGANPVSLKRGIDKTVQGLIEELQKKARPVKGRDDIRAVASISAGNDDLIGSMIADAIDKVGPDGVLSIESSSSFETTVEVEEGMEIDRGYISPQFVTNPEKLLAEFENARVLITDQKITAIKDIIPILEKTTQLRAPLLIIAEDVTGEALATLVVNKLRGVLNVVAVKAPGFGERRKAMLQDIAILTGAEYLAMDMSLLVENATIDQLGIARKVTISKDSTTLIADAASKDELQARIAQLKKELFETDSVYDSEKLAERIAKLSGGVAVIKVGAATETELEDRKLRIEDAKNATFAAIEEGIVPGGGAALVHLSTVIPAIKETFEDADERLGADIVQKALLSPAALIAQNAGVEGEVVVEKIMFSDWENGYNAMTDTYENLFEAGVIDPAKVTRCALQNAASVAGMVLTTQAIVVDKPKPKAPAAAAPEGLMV

Key:
[1] = target: T1, Cpn60β1 (At5g56500) (A. thaliana) (UniProt C0Z361); assay: native gel or EMSA; reconstitution: 150 μM Cpn60α2 with 100 μM Cpn60β and 50 μM Cpn10 (GroES, mt-cpn10, Cpn20 or Cpn10(2)); 50 mM Tris-HCl pH 8, 0.3 M NaCl, 10 mM MgCl2, 16 mM KCl, 2 mM DTT, 5 mM ATP; 5 min at room temperature, 1 h at 30°C; 6% native polyacrylamide gel; both purified
T1 sequence: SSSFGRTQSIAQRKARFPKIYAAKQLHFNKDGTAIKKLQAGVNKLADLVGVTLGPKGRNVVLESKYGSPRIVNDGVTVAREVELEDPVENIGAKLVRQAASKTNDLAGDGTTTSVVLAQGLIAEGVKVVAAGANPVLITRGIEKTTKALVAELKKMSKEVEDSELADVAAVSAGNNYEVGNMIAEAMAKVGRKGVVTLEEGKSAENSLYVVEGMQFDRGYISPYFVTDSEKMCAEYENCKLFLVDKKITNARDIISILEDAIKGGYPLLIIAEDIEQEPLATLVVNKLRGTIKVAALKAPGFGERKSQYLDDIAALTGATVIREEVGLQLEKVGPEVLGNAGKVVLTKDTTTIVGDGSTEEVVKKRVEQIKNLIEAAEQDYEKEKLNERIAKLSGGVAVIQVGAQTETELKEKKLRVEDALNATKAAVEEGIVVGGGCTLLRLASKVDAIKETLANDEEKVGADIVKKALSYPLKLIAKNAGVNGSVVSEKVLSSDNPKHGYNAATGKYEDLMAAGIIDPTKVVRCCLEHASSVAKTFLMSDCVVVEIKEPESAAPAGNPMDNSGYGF

[2] = target: Cpn60β2 (At3g13470) (A. thaliana) (UniProt Q9LJE4); assay: SEC; 300 μM β2 and 150 μM mt-cpn10 reconstituted with Mg-ATP (500 μl), Superdex 200 run at 4°C; fractions on SDS-PAGE; both purified

binding [1] | Substance | binding [2]
binds | Cpn60α2 (At2g28000) (from UniProt P21238 46-586) | 
 | Cpn60β2 (At3g13470) (from UniProt Q9LJE4 51-596) | no binding (condition: gel filtration at 4°C)
